# System: melanoma
# Assay: Presence of the phosphopeptide in previously analyzed melanoma samples
# Parameters: key: The presence of phosphopeptides in previously analyzed samples including leukemia, colorectal cancer, melanoma, ovarian cancer, breast cancer, and esophageal cancer is indicated by ✓
row,Substance,Melanoma
1,82 (APRSPPPSRP; (4)...(4) The amino acid at this position is optionally phosphorylated; listed as Homo sapiens) [compound 82],✓
2,88 (FRKSMVEHY; (4)...(4) The amino acid at this position is optionally phosphorylated; listed as Homo sapiens) [compound 88],✓
3,95 (HPKRSVSL; (7)...(7) The amino acid at this position is optionally phosphorylated; listed as Homo sapiens) [compound 95],✓
4,110 (KRASGQAFEL; (4)...(4) The amino acid at this position is optionally phosphorylated; listed as Homo sapiens) [compound 110],✓
5,167 (RPRPVSPSSLL; (6)...(6) The amino acid at this position is optionally phosphorylated; listed as Homo sapiens) [compound 167],✓
6,181 (RPRSPRPPP; (4)...(4) The amino acid at this position is optionally phosphorylated; listed as Homo sapiens) [compound 181],✓
7,185 (RPRSPTGPSNSFL; (4)...(4) The amino acid at this position is optionally phosphorylated; listed as Homo sapiens) [compound 185],✓
8,188 (RPRTPLRSL; (4)...(4) The amino acid at this position is optionally phosphorylated; listed as Homo sapiens) [compound 188],✓
9,195 (RPVSPSSLL; (6)...(6) The amino acid at this position is optionally phosphorylated; listed as Homo sapiens) [compound 195],✓
10,203 (RVRKLPSTTL; (7)...(7) The amino acid at this position is optionally phosphorylated; listed as Homo sapiens) [compound 203],✓
11,255 (RRFSRSPIR; (6)...(6) The amino acid at this position is optionally phosphorylated; listed as Homo sapiens) [compound 255],✓
12,256 (RRFSRSPIRR; (4)...(4) The amino acid at this position is optionally phosphorylated; listed as Homo sapiens) [compound 256],✓
13,265 (RRLSGGSHSY; (4)...(4) The amino acid at this position is optionally phosphorylated; listed as Homo sapiens) [compound 265],✓
14,272 (RRPSLVHGY; (4)...(4) The amino acid at this position is optionally phosphorylated; listed as Homo sapiens) [compound 272],✓
15,273 (RRPSYTLGM; (4)...(4) The amino acid at this position is optionally phosphorylated; listed as Homo sapiens) [compound 273],✓
16,280 (RRVVQRSSL; (8)...(8) The amino acid at this position is optionally phosphorylated; listed as Homo sapiens) [compound 280],✓
17,283 (RSRSPLEL; (4)...(4) The amino acid at this position is optionally phosphorylated; listed as Homo sapiens) [compound 283],✓
18,290 (LLDPSRSYSY; (9)...(9) The amino acid at this position is optionally phosphorylated; listed as Homo sapiens) [compound 290],✓
19,291 (SLDSPSYVLY; (4)...(4) The amino acid at this position is optionally phosphorylated; listed as Homo sapiens) [compound 291],✓

# — US20190374627A1, “TARGET PEPTIDES FOR CANCER THERAPY AND DIAGNOSTICS” (priority 2016, published 2019)
